Measured values from US20160349268A1, “STEPWISE ASSEMBLED CAPTURE COMPOUNDS COMPRISING A CLEAVABLE FUNCTION AND METHOD FOR ISOLATING AND/OR CHARACTERIZING BIOMOLECULES OR BIOMOLECULE FRAGMENTS, IN PARTICULAR PROTEINS OR PROTEIN FRAGMENTS, OF COMPLEX MIXTURES” (CAPROTEC BIOANALYTICS GMBH, priority 2014, published 2016).
At least one structure is not confirmed: it was looked up by name or label, or the drawing left a doubt.

Assay: Cleavage of 1 (CPT600) after photo-reaction in solution (UV irradiation, HCl treatment, RP-HPLC UV/MS)
Format: physicochemical
Conditions: BPC + All MS
Procedure: In a 100 μL PCR tube, 20 μL 73 μM 1 (CPT600) was irradiated at 4° C. for 5 min in the caproBox (310 nm version, caprotec bioanalytics GmbH, Berlin, Germany). 1.7 μL 37% HCl was added, mixed and the solution was incubated on a thermoshaker at 37° C. for 2 h. Then 100 μL Milli-Q water and 9 μL 2N NaOH were added and mixed. The resulting solution as analyzed by RP-HPLC coupled to a UV detector and a mass spectrometer (FIG. 6 and Table 2a) as described in example 1. As a control, the same sample but with only very brief incubation under acidic conditions (r.t. for about 10 s instead of 37° C. for 2 h) was prepared (FIG. 7 and Table 2b).

[1] = 1 (CPT600) after UV irradiation and HCl 37 °C 2 h

## C#CCNC(=O)C1(C(=O)NCCCC[C@@H](C(=O)NCCc2ccc(NC(=O)CCCCCCC(=O)NO)cc2)[N+](C)(C)C)COC(c2ccc(C3(C(F)(F)F)N=N3)cc2)OC1 (stereo partly drawn) [Compound 1, (S)-6-(2-(4-azido-2,3,5,6-tetrafluorophenyl)-5-(prop-2-ynylcarbamoyl)-1,3-dioxane-5-carboxamido)-1-(4-(8-(hydroxyamino)-8-oxooctanamido)phenethylamino)-N,N,N-trimethyl-1-oxohexan-2-aminium]
[1]
  Area (MS-peak integration): 100943232
  Area Frac. %: 1.52%
1 (CPT600) after UV irradiation, very brief acid (r.t. about 10 s, control)
  Area (MS-peak integration): 171689952
